Here are results for one substance from paper PMC5227094.

Results are given in words; binding and its absence hold for the method and conditions named. In cells and extracts the contact can be indirect. Some binding calls cover weakened binding; strength is not graded here.

This assay has as its target GluN2B (mouse (endogenous in forebrain)) (UniProt Q01097). In words: co-IP; immuno-depletion: extract supernatant of Glun1^TAP/TAP/Psd95^EGFP/EGFP mice incubated with antibodies (GluN2A, GluN2B, GFP, PSD95/PSD93, non-specific IgG) 2-16 h at 6-10 °C, captured on protein G magnetic beads; what is left separated by BNP and immunoblotted with Flag antibody for TAP-GluN1. For orientation: Immunoblotting shows a protein as a band on a membrane.

Turning to GluN2A (from UniProt P35436 23-1464), the binding entry is “binds”.
